Experimental data published in patent US20230310702A1 (Success Bio-Tech Co., Ltd., priority 2020, published 2023).

Experiment: general procedure: Fmoc solid-phase peptide synthesis; Rink Amide-MBHA Resin; TBTU/HOBt/NMM
Conditions: whole synthesis, scale of the general procedure 1 g resin

With “AC-Arg-Ala-Asp-Ala-Arg-Ala-Asp-Ala-Arg-Ala-Asp-Ala-Arg-Ala-Asp-Ala- amide” the difficulty met was “repeated feeding is usually required, hence the yield reduces, also resulting in complex by-products”.
